This is one part of the list. Shown are side measurements of this screen, not its main read-out; they come without a call. Most of these compounds were active or inconclusive in the main read-out, so they are no random draw. Potencies come from curve fits of mixed quality, noted in brackets.
Experiment: qHTS Assay for Lipid Storage Modulators in Drosophila S3 Cells;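 for cell number change: cells counted by Cell Tracker Red CMTPX staining in the red channel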
Conditions: BODIPY lipid droplet fluorescence, 18-24 h; for cell number change: measured here: cell count max response, cells fed with added oleic acid
Outline: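 Drosophila S3 cells got compounds at several concentrations plus oleic acid (400 uM solution). Laser-scanning cytometry with 488 nm excitation read lipid droplets at 500-530 nm and cells at 575-640 nm. Percent activity was relative to 20 uM Triacsin C.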

[1] = measured here: cell number channel AC50, cells fed with added oleic acid
[2] = measured here: lipid fluorescence (Fed channel) AC50, cells fed with added oleic acid

## CC(=O)CCc1ccc(OCCCCN2CCC(Cc3ccccc3)CC2)cc1
  cell number change: -18.9%
[1]
  AC50: 0.282 µM [falling, full curve, poor fit]

## Cc1ccc(OCC(=O)NC2CC(C)(C)NC(C)(C)C2)cc1C
  cell number change: 5.25%

## CCOc1ccccc1CN1CCN(Cc2ccc(C)o2)CC1CCO (centres undefined)
  cell number change: -19.2%
[1]
  AC50: 0.731 µM [falling, full curve]
[2]
  AC50: 18.4 µM [falling, single point]

## CC(C)(C)OC(=O)NCCCCCc1nnc(SCC(N)=O)o1
  cell number change: -10.7%

## CCOC(=O)c1ccccc1NC(=O)C1CCN(c2ncnc3sc(C)c(C)c23)CC1
  cell number change: 18.3%
[1]
  AC50: 0.92 µM [rising, full curve, poor fit]
[2]
  AC50: 1.3 µM [rising, full curve]

## CCOc1ccccc1NC(=O)c1cccc2c1C(=O)N(CCOC)C2
  cell number change: 27.4%

## Cc1ccc2c(CC(=O)Nc3ccc(N4CCN(C)CC4)cc3C)coc2c1
  cell number change: -4.26%
[2]
  AC50: 1.84 µM [rising, partial curve, poor fit]

## Nn1c(SCC(=O)NCCCc2ccccc2)nnc1-c1cccnc1
  cell number change: 5.55%
[1]
  AC50: 6.51 µM [falling, single point]
[2]
  AC50: 6.51 µM [falling, single point]

## COc1cccc2sc(NC(=O)c3ccc(Br)s3)nc12
  cell number change: -19.7%
[2]
  AC50: 16.4 µM [falling, single point]

## O=C(CN1C(=O)C2CC=CCC2C1=O)Nc1cc(C(F)(F)F)ccc1N1CCCC1 (centres undefined)
  cell number change: 22.1%

## CCN(CC)S(=O)(=O)c1ccc(OC)c(NC(=O)c2ccc3c(c2)OCO3)c1
  cell number change: 71.3%
[1]
  AC50: 29.1 µM [rising, single point]

## CCOC(=O)c1cc2c(=O)n3ccccc3nc2n(CC(C)C)c1=NC(=O)c1c(-c2c(F)cccc2Cl)noc1C
  cell number change: 4.07%
[2]
  AC50: 6.51 µM [falling, single point]

## Cc1cccc(C)c1OCCCN1CCOCC1
  cell number change: 11.1%

## CCOC(=O)c1ccccc1NC(=O)COC(=O)C(CCSC)NC(=O)COc1ccccc1 (centres undefined)
[1]
  AC50: 2.59 µM [rising, single point]

## CC(NC(=O)CNC(=O)C1CCCCC1)c1cccc(Cl)c1 (centres undefined)
  cell number change: 5.65%
[2]
  AC50: 0.82 µM [rising, full curve]

## CNc1c([N+](=O)[O-])cnn1-c1ccc(F)cc1
  cell number change: -5.15%
[2]
  AC50: 18.4 µM [rising, single point]

## Cc1cccc(-n2c(C)cc(C(=O)NC3CCCCC3)c2C)c1
[2]
  AC50: 14.6 µM [falling, partial curve]

## Cc1cccc(Nc2nc(N)nc(CC(=O)CSc3ccc(Cl)cc3)n2)c1
  cell number change: 23.7%
[1]
  AC50: 0.259 µM [rising, full curve, poor fit]
[2]
  AC50: 0.366 µM [rising, full curve, poor fit]

## CCOc1cc(/C=C(\C#N)C(=O)Nc2cccc(C(=O)O)c2)ccc1OCc1ccccc1Cl
  cell number change: -16.1%
[1]
  AC50: 6.51 µM [falling, single point]
[2]
  AC50: 29.1 µM [falling, single point]

## COc1ccc([C@H]2Oc3cc(O)cc(O)c3C(=O)C2[C@@H]2C(=O)c3c(O)cc(O)cc3O[C@@H]2c2ccc(OC)cc2)cc1 (some centres undefined)
  cell number change: -68.8%
[1]
  AC50: 29.1 µM [falling, single point]
[2]
  AC50: 29.1 µM [falling, single point]

## Cc1ccc(C(C(=O)NC2CCCC2)N2CCCC(C)C2)cc1 (centres undefined)
  cell number change: -14.8%
[1]
  AC50: 3.26 µM [falling, single point]
[2]
  AC50: 2.31 µM [falling, single point]

## CC1=C(C#N)C(c2cn(-c3ccccc3)nc2-c2cccs2)C(C#N)=C(C)N1
  cell number change: -42.3%
[1]
  AC50: 0.00411 µM [falling, full curve, poor fit]

## CCc1ccc(C(=O)c2cncc(Br)c2)cc1
  cell number change: -16.8%
[2]
  AC50: 16.4 µM [rising, partial curve]

## COc1cc2c(cc1OC)CN(C(=O)C(C)(C)C)CC2
  cell number change: -6.09%

## Cn1ncc2cc(NC(N)=S)ccc21
  cell number change: 40.2%

## COc1ccc(CCC(C)Nc2cccc(F)c2)cc1 (centres undefined)
  cell number change: -6.97%
[1]
  AC50: 0.651 µM [falling, full curve]
[2]
  AC50: 0.92 µM [falling, full curve]

## CC(C)CCC(=O)N1CCOC1=O
  cell number change: 36.9%
[1]
  AC50: 13 µM [rising, partial curve, poor fit]
[2]
  AC50: 29.1 µM [rising, single point]

## CSCCC(NC(=O)c1ccc(Br)cc1)C(=O)O (centres undefined)
  cell number change: 29.8%
[2]
  AC50: 29.1 µM [rising, single point]

## CCOc1ccc(S(=O)(=O)N2CCC(C(=O)NCCN3CCOCC3)CC2)cc1C
  cell number change: 9.21%
[2]
  AC50: 3.55 µM [falling, full curve, poor fit]

## Cc1ccc(C(=O)OCC(=O)c2ccc(CC(=O)N3CCOCC3)s2)c(C)c1
  cell number change: -12.9%

## CCCNC(=O)NC(=O)CN1C(=O)NC(C)(c2ccc3ccccc3c2)C1=O (centres undefined)
  cell number change: -6.67%

## CN1C2C=C3C(C#N)=C(N)C(C#N)(C#N)[C@@H](c4ccsc4)[C@@H]3C1CC2 (some centres undefined)
  cell number change: -5.17%

## O=C(OCC(=O)c1ccc[nH]1)c1ccccc1
  cell number change: -5.41%
[1]
  AC50: 1.64 µM [rising, partial curve]

## CCOC(=O)/C(=N\Nc1ccccc1[N+](=O)[O-])c1csc(Nc2ccccc2)n1
  cell number change: -96.1%
[1]
  AC50: 18.4 µM [falling, partial curve]
[2]
  AC50: 18.4 µM [falling, partial curve]

## CSc1ccc(C(=S)N2CCN(C(c3ccccc3)c3ccccc3)CC2)cc1
  cell number change: 20.1%
[2]
  AC50: 0.92 µM [rising, full curve]

## COCCSc1ccccc1C(=O)Nc1cc([N+](=O)[O-])ccc1OC
  cell number change: 4.46%
[2]
  AC50: 0.103 µM [falling, full curve, poor fit]

## O=C1CC(C(=O)N2CCOCC2)C2(CCCC2)O1 (centres undefined)
  cell number change: -122%
[1]
  AC50: 20.6 µM [falling, partial curve]
[2]
  AC50: 4.61 µM [falling, full curve]

## CSc1nncc(-c2ccccc2)n1
  cell number change: -18.2%
[2]
  AC50: 0.82 µM [falling, partial curve, poor fit]

## CCOC(=O)CCNC(=O)CCNC(=O)C(c1ccccc1)c1ccccc1
  cell number change: 20.5%

## COC(=O)/C=C/c1ccccc1CN1[C@@H](CC(=O)OC)c2ccccc2S1(=O)=O
  cell number change: 3.56%
[2]
  AC50: 29.1 µM [rising, single point]

## NS(=O)(=O)c1ccc(CCNC(=O)CN2CCCCCC2)cc1
  cell number change: -34.7%

## CN1/C(=C/C=N/n2cnnc2)C(C)(C)c2ccccc21
[1]
  AC50: 2.59 µM [rising, partial curve]
[2]
  AC50: 6.51 µM [rising, partial curve, poor fit]

## Fc1ccc(CN2CCCN(Cc3nc(-c4ccc5c(c4)OCO5)no3)CC2)cc1
  cell number change: -1.37%

## O=[N+]([O-])c1cc(C(F)(F)F)ccc1NC1CCN(Cc2ccccc2)C1 (centres undefined)
  cell number change: 9.73%
[2]
  AC50: 4.61 µM [rising, full curve]

## CCOC(=O)CNC(=O)CSc1ncnc2c1cnn2-c1ccc(Cl)cc1
  cell number change: -9.57%

## Cc1cc(C)nc(N2CCC(C(=O)NCc3ccccc3F)CC2)n1
  cell number change: 8.45%
[1]
  AC50: 0.461 µM [falling, single point]
[2]
  AC50: 0.461 µM [falling, partial curve, poor fit]

## N#Cc1ccc(CN2CCN(C(=O)CN3C(=O)NC4(CCCC4)C3=O)CC2)cc1
  cell number change: 127%

## COc1ccc(NC(=O)CSc2ncccc2C(=O)OC(C)C)cc1OC
  cell number change: 40.6%
[1]
  AC50: 0.58 µM [rising, full curve]
[2]
  AC50: 7.31 µM [falling, partial curve]

## CC(C)CCn1c(CN2CCN(C(=O)c3ccco3)CC2)nc2c1c(=O)n(C)c(=O)n2C
  cell number change: 37.8%
[1]
  AC50: 0.13 µM [rising, full curve]
[2]
  AC50: 16.4 µM [rising, single point]

## CCOC(=O)CSc1nc2ccccc2c(=O)n1C1CCCC1
  cell number change: -3.57%
[2]
  AC50: 5.8 µM [rising, partial curve]

## COc1ccc(-n2nc(C(=O)NCC(=O)NCCCN3CC(C)CC(C)C3)c3ccccc3c2=O)cc1 (centres undefined)
  cell number change: 12.6%
[2]
  AC50: 18.4 µM [rising, partial curve]

## CC(=O)Nc1ccc(/C(C)=N/NC(=O)CN(c2ccccc2Br)S(C)(=O)=O)cc1
[1]
  AC50: 0.731 µM [rising, single point]

## O=C(NC1=NCCS1)C12CC3CC(CC(C3)C1)C2
  cell number change: -42.8%

## CC(C)NC(=O)NC(=O)CN1C(=O)NC2(CCc3ccccc3C2)C1=O (centres undefined)
  cell number change: 20.8%

## CCOC(=O)c1[nH]nc2c1C(=O)N(CC)C2=O
  cell number change: -11.3%
[2]
  AC50: 18.4 µM [falling, single point]

## CCn1ccnc1CN(C)Cc1cn(-c2ccc(C)cc2)nc1-c1ccc(F)cc1
  cell number change: -34.2%
[1]
  AC50: 29.1 µM [falling, single point]
[2]
  AC50: 1.84 µM [falling, partial curve, poor fit]

## CC(C)c1ccc(OCc2ccc(C(=O)N3CCCC3)o2)cc1
  cell number change: -23.8%
[2]
  AC50: 2.06 µM [rising, partial curve]

## CC(C)CC(=O)c1c[nH]c(C(=O)N2CCN(Cc3ccccc3)CC2)c1
  cell number change: 37.2%
[1]
  AC50: 6.51 µM [rising, single point]

## Cc1ccccc1OCC(O)CN1CCC(C)CC1 (centres undefined)
  cell number change: -37%
[1]
  AC50: 6.51 µM [falling, partial curve]
[2]
  AC50: 4.11 µM [falling, partial curve]

## Cc1ccc(-c2noc(CSc3nnc(Cc4ccccc4)n3-c3cccc(C)c3)n2)cc1
  cell number change: -14.3%
[2]
  AC50: 1.46 µM [rising, partial curve]

## O=S(=O)(Cc1ccc(Cl)cc1)NCc1ccc2c(c1)OCO2
  cell number change: 22.2%

## Fc1ccc(-c2cn3ccccc3n2)cc1
  cell number change: -8.14%
[2]
  AC50: 29.1 µM [falling, single point]

From PubChem BioAssay AID2685 (National Center for Advancing Translational Sciences (NCATS), 2010)
